Paper PMC7219087
Results are given in words; binding and its absence hold for the method and conditions named. Sequences can lack the tags named with a protein.

Biological target: T1, BRASSINOSTEROID ENHANCED EXPRESSION1 (BEE1), yeast two-hybrid fusion (Arabidopsis thaliana) (UniProt Q8GZ13)
T1 sequence: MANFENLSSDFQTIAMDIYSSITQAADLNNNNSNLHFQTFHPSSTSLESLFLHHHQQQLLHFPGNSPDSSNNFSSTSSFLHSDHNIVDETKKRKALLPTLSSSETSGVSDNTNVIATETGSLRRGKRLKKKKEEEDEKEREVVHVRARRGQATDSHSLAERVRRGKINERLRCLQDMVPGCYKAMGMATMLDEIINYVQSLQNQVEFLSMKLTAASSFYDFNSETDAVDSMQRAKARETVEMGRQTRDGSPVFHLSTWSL
Assay: two-hybrid; GAL4 system (pGADT7 and pGBKT7), yeast strain AH109, cotransformation, 22°C; positive when growth on -W-L-H +15 mM 3-AT selective medium

binding: no binding
Substance: … (STK), yeast two-hybrid fusion (from UniProt Q38836 1-230)
